Laboratory results: PubChem BioAssay AID1259424 (University of Nebraska Medical Center, 2018)

Aim: 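Seek colon cancer survival genes behaving like KSR1, using a six-gene signature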 (primary screen)
Cells: human HCT116 colon cancer cells
Reagent: siRNA pool against human genes, 50 nM
Detection: 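Log2 levels of six mRNAs (branched-DNA multiplex), adjusted by two reference genes and the non-targeting median, then scored against the average KSR1 knockdown pattern as Pearson r and euclidean distance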
Reading the numbers: mean correlation with KSR1 profile: higher = expression change more like KSR1 knockdown; mean distance from KSR1 profile: higher = expression change less like KSR1 knockdown
Shown is one part, drawn at random, of about 14,000 reagents. 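Higher correlation or smaller distance means closer resemblance to KSR1 loss; control wells, including KSR1 knockdowns, recur on many plates.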 Further read-outs or replicates are left out here. The record does not give: the time to read-out.

gene,mean correlation with KSR1 profile,mean distance from KSR1 profile
CHD3,0.382,1.41
ZC3HC1,-0.344,2.12
SF3B3,-0.31,3.66
RPSA,0.287,4.01
INPP5D,0.225,2.92
WNT3A,-0.239,1.32
CHPT1,-0.036,2.43
BICC1,0.506,1.97
PPARD,-0.224,2.68
OGFRL1,0.632,1.24
INA,-0.144,1.57
PPP2CA,0.519,1.93
ZMIZ2,0.397,1.89
OR1D5,-0.178,2.83
STAG2,-0.572,2.05
ACSS2,0.136,2.07
SLC25A12,0.544,2.61
TXNRD3,0.17,1.34
GGCT,0.101,2.44
RAPGEF6,-0.0683,5.26

3 of these entries in another layout.
{"gene":"ZMIZ2","mean correlation with KSR1 profile":0.397,"mean distance from KSR1 profile":1.89}
{"gene":"OR1D5","mean correlation with KSR1 profile":-0.178,"mean distance from KSR1 profile":2.83}
{"gene":"STAG2","mean correlation with KSR1 profile":-0.572,"mean distance from KSR1 profile":2.05}
